Results are given in words; binding and its absence hold for the method and conditions named. Binding seen in cells or lysates may run through a third protein. Binding calls can cover weak binding; strength is not graded here. Sequences can lack the tags named with a protein.
Molecular target: His-PRO (recombinant TbPRMT1 prozyme subunit) (T. brucei)
Experiment: co-purification by nickel affinity after coexpression; ENZ and His-PRO coexpressed in E. coli, complex purified by nickel affinity

B1: ENZ (recombinant TbPRMT1 enzymatic subunit, coexpressed with His-PRO) (protein, UniProt Q4GYA9 1-345)
chain: MTVDANAASSTTTTTDYYFDSYSHYGIHMEMLKDCHRTTSYRDAMWRNAYLFKDKVVLDVGCGTGILSMFAAKAGARKVIGVDCSTVAVQAREIVRDNGFEDVITIIQGKVEEIQLDEKVDIIISEWMGYFLLYESMLNTVLYARDNLGTPDVKMFPDKANMHVCGITDEQYIQERFNIWDNVQGIDFSYFKRLSFIEPLVDTVERSQIVTNVAPLVSFDINTVKEADLSFTSEFALEAQASRGKRNGGNSIIYVHALSVHFDTPFTAGHEVVILDTTPYSPPTHWRQTVLYLFNPLRMRAGERATFRMKCSPNALNGRDLDISLHVDFEGALQISHYDQDFRLR
- binding: binds
